Results published in the supplement of paper PMC12889115.
The other results are listed elsewhere or left out. These are raw signals, not scaled to a control.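 Primary screen: polymyxin B was added at a level permeabilizing Salmonella outer membranes while sparing inner membranes. DMSO wells, both with and without polymyxin B, established maximum growth. Plate-to-plate variation meant each plate was ranked on its own, and the lowest-OD600 compounds were selected as hits.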

Tested on: Salmonella enterica serovar Typhimurium SL1344
Experiment: bacterial growth OD600 after 18 h with compound and polymyxin B; higher = more bacterial growth (less inhibition)
Details: 50 µM, Mueller-Hinton broth

| SMILES | bacterial growth OD600 (polymyxin B 1 µg/mL) | bacterial growth OD600 (polymyxin B 0.75 µg/mL) |
| --- | --- | --- |
| C#CCN(CC=C)Cc1nc(-c2cc(OC)ccc2OC)oc1C | 0.798 |  |
| COc1cc2nc(-c3cc4c(c(OC)c3)OCCN(C(=O)CC3CCCC3)C4)cc(C)c2cc1OC |  | 0.971 |
| CCCN1CCC(CC(=O)N2CCCC(N3CCN(c4ccc(F)cc4)CC3)C2)CC1 (stereo not drawn) | 0.914 |  |
| CCNC(=O)c1cn(CC(C)C)cc(C(=O)NCC2CCCCC2)c1=O |  | 0.212 |
| COc1ccc(F)c(CC2(CCC(=O)N3CCN(C/C=C/c4ccccc4)CC3)CCC(=O)N2)c1 (stereo not drawn) |  | 0.804 |
| Cc1cc(CNc2ccc(-c3nc(Cc4ccccc4)no3)cn2)no1 |  | 0.229 |
| CCn1ccnc1CN1CCC(C2CCN(CC(C)(C)C)C2)CC1 (stereo not drawn) |  | 0.831 |
| CCOc1ccc2nc(N3CCCC(C(=O)N(CC)CCn4cccn4)C3)nc(C)c2c1 (stereo not drawn) |  | 0.776 |

Rewritten with tabs: two of the compounds above.
SMILES	bacterial growth OD600 (polymyxin B 1 µg/mL)	bacterial growth OD600 (polymyxin B 0.75 µg/mL)
CCn1ccnc1CN1CCC(C2CCN(CC(C)(C)C)C2)CC1 (stereo not drawn)		0.831
CCOc1ccc2nc(N3CCCC(C(=O)N(CC)CCn4cccn4)C3)nc(C)c2c1 (stereo not drawn)		0.776
